No constants are given. Whether binding was seen depends on the method and setting. Sequences can lack the tags named with a protein.

Assay [1] has as its target Response Regulator 1 (Rre1), full-length, MBP-tagged (Synechocystis sp. PCC 6803) (UniProt P72781). Kind of assay: SEC; Rre1, RpaA or RppA reduced with 2 mM DTT; Superdex S200 10/300GL Increase; 100 mM HEPES pH 8.0, 100 mM NaCl, 2 mM DTT; both purified. In general terms: In gel filtration, larger molecules generally elute earlier.
For assay [2] the target is unchanged. Kind of assay: non-reducing urea-SDS/PAGE; protein as purified from E. coli incubated with 5 mM TrxA and 0.1 mM DTT; non-reducing urea-SDS/PAGE, Coomassie; both purified.
The target is the same in assay [3]. Kind of assay: non-reducing urea-SDS/PAGE; 2 mM DTT, 30 min, room temperature, added to air-oxidised Rre1, RpaA, RpaB or to diamide-oxidised, desalted RppA; non-reducing SDS-6 M urea-8% PAGE; both purified.

B1: Response Regulator 1 (Rre1), full-length, MBP-tagged (natural protein, Synechocystis sp. PCC 6803, UniProt P72781 1-231, looked up)
chain: MAEPISLLLVDDEPGVRESVQAFLEDSGDFKVDLAANATEAWDYLQHHLPALVISDIMMPQVDGYQFLQKLREDARFQSLPVVFLTARGMTGDRIQGYQTGCDAFLSKPFDPDELEAIVRNLLARQQASSDAGSESAKLQEIYQEIRALKEQIGQPSGIHTTPSPIKLDFTPREQSVLDLVSQGLMNKEIAAQLKTSVRNVEKYVSRLFTKTGTNSRTELVRFALQHGLTE
notes: Rre1 (response regulator 1), Synechocystis sp; Cloned KpnI/XhoI into pETG-41A; theoretical mass of the MBP-tagged monomer printed as 75 kDa
As for B1, the binding entry in assay [1] is “no binding (condition: with 2 mM DTT)”; in assay [2] it was “no binding (condition: with 5 mM TrxA and 0.1 mM DTT)”; in assay [3], “no binding (condition: with 2 mM DTT)”.
